This test deals with cLUC-CTD (Arabidopsis thaliana) (UniProt P18616). The test is described as follows: split reporter.

By UniProt entry, the sequences of proteins in these tests, tags left out. Where a name states a change or a piece, a line headed by the entry shows the natural chain unless it says otherwise.
UniProt P18616: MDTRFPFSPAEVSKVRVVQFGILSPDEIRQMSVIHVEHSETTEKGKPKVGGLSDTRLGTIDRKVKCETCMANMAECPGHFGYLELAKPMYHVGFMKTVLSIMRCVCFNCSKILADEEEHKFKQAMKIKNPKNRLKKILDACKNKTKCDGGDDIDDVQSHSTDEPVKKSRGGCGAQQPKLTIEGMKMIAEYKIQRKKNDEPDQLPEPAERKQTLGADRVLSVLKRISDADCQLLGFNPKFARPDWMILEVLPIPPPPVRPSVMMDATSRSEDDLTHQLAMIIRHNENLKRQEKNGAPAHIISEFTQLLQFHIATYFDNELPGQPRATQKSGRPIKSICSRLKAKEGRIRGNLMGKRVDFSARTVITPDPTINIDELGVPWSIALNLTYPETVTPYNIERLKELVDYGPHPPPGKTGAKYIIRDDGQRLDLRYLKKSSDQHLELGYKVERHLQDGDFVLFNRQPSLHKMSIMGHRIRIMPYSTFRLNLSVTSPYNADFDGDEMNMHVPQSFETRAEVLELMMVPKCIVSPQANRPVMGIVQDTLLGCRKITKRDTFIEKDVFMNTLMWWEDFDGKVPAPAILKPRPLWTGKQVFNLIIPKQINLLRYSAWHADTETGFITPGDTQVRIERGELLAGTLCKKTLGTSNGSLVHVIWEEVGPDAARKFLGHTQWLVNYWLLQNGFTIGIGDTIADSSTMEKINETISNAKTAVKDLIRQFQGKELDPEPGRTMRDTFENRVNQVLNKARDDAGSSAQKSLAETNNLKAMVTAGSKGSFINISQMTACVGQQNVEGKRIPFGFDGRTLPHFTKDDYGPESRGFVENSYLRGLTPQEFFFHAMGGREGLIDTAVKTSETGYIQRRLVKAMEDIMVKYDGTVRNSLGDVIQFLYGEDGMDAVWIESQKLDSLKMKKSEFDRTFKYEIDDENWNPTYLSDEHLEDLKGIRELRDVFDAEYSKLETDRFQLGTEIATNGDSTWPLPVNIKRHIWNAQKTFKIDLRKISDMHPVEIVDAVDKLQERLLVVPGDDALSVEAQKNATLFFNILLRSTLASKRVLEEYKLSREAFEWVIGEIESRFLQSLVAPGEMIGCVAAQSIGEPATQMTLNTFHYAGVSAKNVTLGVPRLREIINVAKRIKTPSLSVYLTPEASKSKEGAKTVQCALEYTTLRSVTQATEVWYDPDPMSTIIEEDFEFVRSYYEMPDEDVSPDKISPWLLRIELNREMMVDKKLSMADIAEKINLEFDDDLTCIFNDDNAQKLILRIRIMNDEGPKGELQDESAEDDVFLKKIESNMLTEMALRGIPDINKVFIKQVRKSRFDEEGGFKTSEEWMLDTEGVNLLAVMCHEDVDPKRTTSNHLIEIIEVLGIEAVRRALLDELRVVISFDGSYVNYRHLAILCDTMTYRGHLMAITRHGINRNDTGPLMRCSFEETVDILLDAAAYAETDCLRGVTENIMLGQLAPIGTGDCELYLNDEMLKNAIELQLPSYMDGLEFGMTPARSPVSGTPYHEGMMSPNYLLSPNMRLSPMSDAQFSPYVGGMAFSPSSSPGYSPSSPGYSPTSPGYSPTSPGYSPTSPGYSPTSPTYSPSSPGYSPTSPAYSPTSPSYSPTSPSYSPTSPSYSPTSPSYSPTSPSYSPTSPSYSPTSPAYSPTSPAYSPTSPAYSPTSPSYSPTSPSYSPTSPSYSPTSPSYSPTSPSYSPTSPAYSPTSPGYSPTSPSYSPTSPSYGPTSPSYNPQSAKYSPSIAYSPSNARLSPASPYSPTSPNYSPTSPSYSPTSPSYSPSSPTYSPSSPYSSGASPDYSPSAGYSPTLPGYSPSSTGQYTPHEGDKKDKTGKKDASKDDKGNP

Results are given in words; binding and its absence hold for the method and conditions named. In cells and extracts the contact can be indirect. A result given as binding can be weak or reduced; the word gives no strength. Where a sequence is shown, tags or fusion partners need not be part of it.

B1: ELP4-nLUC (protein, UniProt Q9C778 1-355)
chain: MAAPNVRSSSSFSRNISVVSSPQIPGLKSGPNGTAFISSGIRDLDRILGGGYPLGSLVMVMEDPEAPHHMDLLRTYMSQGLVNNQPLLYASPSKDPKGFLGTLPHPASSKEDKPTAPDPDQGESLRIAWQYRKYLENQKNAIDDYSNDFDMRKPLERQFLSGRPIDCVSLLDSSDLSIAQDHCATFLSKFPRNSSNIASIGRIAIQSFCSPLCEYSEKESDMLSFIRLLKSMLMVSNAVAIVTFPPSLLSPSSSKRLQHMADTLLSIKAIPDGDKELEKLLTGYKDINGFLNIHKVARINTQVPVILEAKTFSMSLKKRRFLALECLNQAPVDGSSGTSYGTSGSCSSKSGALDF
Turning to B1, the binding result was “binds”.

These data come from paper doi:10.1101/251603.
